Assay results taken from patent US20220251241A1.
Residue numbers refer to the chain shown, from its start. Numbers in names are those of the source. These are yes or no findings as the source states them, for the method shown. Some results given as binding are weak or reduced against the parent protein; the word gives no strength.

By UniProt entry, the sequences of proteins in these tests, tags left out. Where a name states a change or a piece, a line headed by the entry shows the natural chain unless it says otherwise.
UniProt Q92743: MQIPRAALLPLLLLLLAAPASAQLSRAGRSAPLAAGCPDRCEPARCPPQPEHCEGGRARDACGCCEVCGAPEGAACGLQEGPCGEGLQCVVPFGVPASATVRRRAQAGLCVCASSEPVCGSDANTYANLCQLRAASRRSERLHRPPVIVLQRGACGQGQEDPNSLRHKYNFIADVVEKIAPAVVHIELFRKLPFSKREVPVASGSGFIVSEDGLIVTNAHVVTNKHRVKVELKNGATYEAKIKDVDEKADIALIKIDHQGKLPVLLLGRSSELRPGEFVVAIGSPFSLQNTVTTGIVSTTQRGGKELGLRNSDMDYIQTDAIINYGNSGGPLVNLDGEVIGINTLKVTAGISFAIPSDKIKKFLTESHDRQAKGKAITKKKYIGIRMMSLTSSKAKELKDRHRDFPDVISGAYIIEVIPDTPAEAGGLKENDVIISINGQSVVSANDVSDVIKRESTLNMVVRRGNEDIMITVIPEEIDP

B1: antibody hz24F7.v2 (antibody, human IgG1, kappa, N297G, V domains shown)
VH: QVQLVQSGAEVKKPGASVKVSCKASGYTFTDYEMHWVRQAPGQRLEWMGAIDPETGGTAYNQKFKGRVTITADKSASTAYMELSSLRSEDTAVYYCTREGYSYEGGGYYFDYWGQGTLVTVSS
VL: DIQMTQSPSSLSASVGDRVTITCSVSSSVSYMYWYQQKPGKAPKLLIYDTSNLASGVPSRFSGSGSGTDFTFTISSLQPEDIATYYCQQWSSYPTFGQGTKLEIKR
B2: antibody 24F7 (antibody, V domains shown)
VH: QVQLQQSGAELVRPGASVKLSCKASGYTFTDYEMHWVKQTPVHGLEWIGAIDPETGGTAYNQKFKGKATLTADKSSSTAYMELRSLTSEDSAVYYCTREGYSYDGGGYYFDYWGQGTTLTVSS
VL: QIVLTQSPAIMSASPGEKVTMTCSVSSSVSYMYWYQQKPGSSPRLLIYDTSNLASGVPVRFSGSGSGTSYSLTISRMEAEDAATYYCQQWSSYPTFGGGTKLEIK
B3: hz24F7.v2 S91Y (antibody, human IgG1, kappa, N297G, V domains shown)
VH: B1 VH
VL: B1 VL with S91Y
B4: hz24F7.v2 S92T (antibody, human IgG1, kappa, N297G, V domains shown)
VH: B1 VH
VL: B1 VL with S92T
B5: hz24F7.v2 S91A (antibody, human IgG1, kappa, N297G, V domains shown)
VH: B1 VH
VL: B1 VL with S91A
B6: hz24F7.v2 S91T (antibody, human IgG1, kappa, N297G, V domains shown)
VH: B1 VH
VL: B1 VL with S91T
B7: hz24F7.v2 S91L (antibody, human IgG1, kappa, N297G, V domains shown)
VH: B1 VH
VL: B1 VL with S91L
B8: hz24F7.v2 S92D (antibody, human IgG1, kappa, N297G, V domains shown)
VH: B1 VH
VL: B1 VL with S92D
B9: hz24F7.v2 S92Y (antibody, human IgG1, kappa, N297G, V domains shown)
VH: B1 VH
VL: B1 VL with S92Y

How the values were obtained:
[1] = target: HTRA1 (construct not given) (Homo sapiens (Human)) (UniProt Q92743); assay: SPR (Biacore)
[2] = target: HTRA1 (construct not given) (Homo sapiens (Human)) (UniProt Q92743); assay: SPR (Biacore), 25° C.; hz24F7.v2 samples stored at pH 7.4, 40° C. for 0 to 8 weeks
[3] = target: HTRA1 (construct not given) (Homo sapiens (Human)) (UniProt Q92743); assay: SPR (Biacore), FIG. 14
[4] = target: HTRA1 (construct not given) (Homo sapiens (Human)) (UniProt Q92743); assay: SPR (Biacore), captured hz24F7.v2 samples stored 0, 2, 4 and 8 weeks at pH 7.4, 40 C, HTRA1 injected (Table 14)
[5] = target: HTRA1 (construct not given) (Homo sapiens (Human)) (UniProt Q92743); assay: SPR (Biacore) and enzyme assay, summary of Example 11

Binder	binding [1]	further results
B1	binds	binding [2]: binds; binding [3]: binds; binding [4]: binds
B2	binds	
B3	binds	binding [5]: binds
B4	binds	
B5	binds	
B6	binds	
B7	binds	
B8	binds	
B9	binds	
